Measured values reported in paper PMC12040169 (PLOS Biology, 2025).
Some of the results follow.

tested on: T1, CTL2-GFP (C. trachomatis L2/434/Bu, GFP-expressing); set-up: species or system HeLa; Intracellular C. trachomatis growth in HeLa cells, bulk GFP fluorescence relative to DMSO; settings: bulk GFP, single well; 28.5 h, 10 µM; inhibitor
T1 construct: L2/434/Bu, GFP-expressing

Going from `O=c1n(-c2cccc(C(F)(F)F)c2)ccn1S(=O)(=O)c1ccc(Cl)c(Cl)c1` [CBK106579] to `CN(C)c1cccc2c(S(=O)(=O)n3ccn(-c4cccc(C(F)(F)F)c4)c3=O)cccc12` [CBK106578], the “% of control remaining” value rises from 103.321% to 107.004%.

Compared with `O=C(CCC1COc2ccccc2O1)Nc1ccc(C(=O)O)cc1` (stereo not drawn) [CBK269856], `O=C1CCCN1CCCNC(=O)C1(c2ccccc2)COc2ccccc21` (stereo not drawn) [CBK017653] is lower in “% of control remaining” value: 131.362% for the first, 94.4912% for the second.

Compared with `O=c1c2nnc3ncnn3c2ccn1-c1ccccc1` [CBK288075], `Cc1nnc(Sc2ccc([N+](=O)[O-])cc2Cl)n1Cc1ccccc1` [CBK269694] is higher in “% of control remaining” value: 88.276% for the first, 124.325% for the second.

Going from `COC(=O)NC(O)C(=O)c1cccs1` (stereo not drawn) [CBK027755] to `CCC(CCC(=O)Nc1ccccc1Cl)C(=O)O` (stereo not drawn) [CBK286767], the “% of control remaining” value rises from 113.263% to 157.269%.

Compared with `O=S(=O)(NCc1ccccc1)N1CCCCCC1` [CBK269569], `COc1ccc(CNC(=O)c2sccc2S(=O)(=O)N2CCCCC2)cc1` [CBK305904] is lower in “% of control remaining” value: 101.966% for the first, 101.265% for the second.

Going from `CC1CCN(c2nc3nonc3nc2Nc2ccc3c(c2)OCO3)CC1` [CBK077551] to `O=C(NCc1ccc2c(c1)OCO2)c1ccc2[nH]ccc2c1` [CBK161750], the “% of control remaining” value rises from 135.003% to 162.397%.

Compared with `O=C(Nc1ccc(S(=O)(=O)N2CCCC2)cc1)C1CC(=O)N(Cc2ccco2)C1` (stereo not drawn) [CBK297500], `CC(C)(Oc1ccc(Cl)cc1)C(=O)Nc1ccc(CN2CCOCC2)cc1` [CBK269940] is higher in “% of control remaining” value: 114.35% for the first, 125.655% for the second.

First: O=C(c1c(F)cccc1F)N1CCC(O)(c2ccccn2)CC1 [CBK283670]
Second: Cc1nc(CN2CCC(O)(c3ccccc3F)CC2)c2ccccn12 [CBK282799]
The “% of control remaining” value of the first is lower: 109.715% for the first, 128.166% for the second.

Compared with `Cc1sc(NC(=S)NC(=O)C2CCCCC2)c(C(N)=O)c1C` [CBK266273], `Cc1sc(NC(=O)C2C3C=CC(C3)C2C(=O)O)c(C(N)=O)c1C` (stereo not drawn) [CBK263685] is lower in “% of control remaining” value: 172.275% for the first, 100% for the second.

Going from `CCCNc1cncc(-c2cccc(O)c2)n1` [CBK065447] to `COc1cccc(-c2cc(C(=O)NCCCN3CCOCC3)c3ccccc3n2)c1` [CBK262630], the “% of control remaining” value falls from 134.828% to 118.37%.

First: CC(C)Nc1cncc(OCCN2CCOCC2)n1 [CBK115599]
Second: COc1ncc(-c2ccc(Nc3ccc(N4CCOCC4)cc3)nc2)c(OC)n1 [CBK036988]
The “% of control remaining” value of the first is lower: 106.331% for the first, 199.122% for the second.

Going from `Cn1nnnc1SCCNCc1ccc2c(c1)n(C)c(=O)n2C` [CBK270080C] to `CC(=O)Nc1ccc(OC(=O)CSc2nc(C)cc(C)n2)cc1` [CBK266707], the “% of control remaining” value rises from 136.587% to 183.824%.

First: COc1ccc2[nH]c3c(c2c1)CCNC31CCN(C(=O)COc2ccccc2)C1 (stereo not drawn) [CBK061661]
Second: COc1ccc(CN2CCC3(CCc4ccccc4C(=O)N3)C2)cc1 (stereo not drawn) [CBK283339]
The “% of control remaining” value of the first is higher: 112.579% for the first, 107.499% for the second.

Going from `Cn1c2ccccc2c2cc(C(O)(CC(=O)CC(O)(c3ccc4c(c3)c3ccccc3n4C)C(F)(F)F)C(F)(F)F)ccc21` (stereo not drawn) [CBK262254] to `COc1ccc(CNc2oc(-c3ccccc3)nc2S(=O)(=O)c2ccccc2)cc1` [CBK267669], the “% of control remaining” value falls from 96.7722% to 81.576%.

Going from `O=C1N[C@H]2CCCN(C(=O)CCN3CCCC3)[C@H]2C/C=C/CCOc2ccccc21` [CBK292162] to `CN1C(=O)c2ccccc2OCCCCC[C@H]2[C@@H]1CCCN2C(=O)c1cc2c([nH]c1=O)CCC2` [CBK292034], the “% of control remaining” value rises from 93.9615% to 99.6157%.

Going from `Cc1cc2c(cc3c(=O)n(CC(=O)NC4CCCC4)nc(C)n32)s1` [CBK284072] to `O=C(Cn1cnnn1)NC1CCCC1` [CBK200372], the “% of control remaining” value falls from 107.302% to 93.4043%.

First: CC(C)C(=O)Nc1ccc2c(c1)C(=O)N(CCC(=O)O)C2=O [CBK286544]
Second: Cc1ccc(C(=O)c2cccc(N3C(=O)c4ccc(C(=O)O)cc4C3=O)c2)cc1C [CBK286994]
The “% of control remaining” value of the first is lower: 111.176% for the first, 112.452% for the second.

First: COc1ccc(-c2cc(C(=O)NCCc3ccncc3)cnc2-c2cccc(C)c2)cn1 [CBK037489]
Second: CC(C)[C@H](CO)NC(=O)c1cnc(-c2ccccc2)c(-c2ccncc2)c1 [CBK036691]
The “% of control remaining” value of the first is lower: 96.9654% for the first, 153.311% for the second.

First: COc1cc(CN(C)CCc2ccccn2)c([N+](=O)[O-])cc1OC [CBK261737G]
Second: COc1ccc(OC)c(CCO)c1 [CBK003033]
The “% of control remaining” value of the first is lower: 100% for the first, 118.378% for the second.

Going from `Cc1noc(C)c1C(=O)N1CCC[C@H](C(=O)c2ccc(F)cc2)C1` [CBK284334] to `COC(=O)[C@H]1CN(C(=O)c2ccccn2)C[C@@H]1c1ccc(F)cc1` [CBK283727], the “% of control remaining” value rises from 93.7311% to 123.046%.

Going from `N#Cc1c(-c2ccccc2)cc(-c2ccccc2)nc1SCC(=O)O` [CBK131684] to `O=C(O)CCSc1nc(-c2ccccc2)c(-c2ccccc2)[nH]1` [CBK264228], the “% of control remaining” value falls from 124.807% to 119.8%.

Compared with `Cc1cc(C)n(CC(O)CN(Cc2ccco2)Cc2cccs2)n1` (stereo not drawn) [CBK282979], `Cc1cc(C)n(CC2CN(CC(=O)NCc3cccs3)CCO2)n1` (stereo not drawn) [CBK304902] is higher in “% of control remaining” value: 104.744% for the first, 111.009% for the second.

Compared with `Cc1c(/C=C2\SC(=S)NC2=O)c2ccccc2n1Cc1ccccc1Cl` [CBK263946], `COC(=O)c1cc(C)sc1NC(=S)Nc1cnn(Cc2cccc3ccccc23)c1` [CBK267098] is higher in “% of control remaining” value: 115.306% for the first, 185.772% for the second.

Going from `O=C1CC(NCC2CCCO2)C(=O)N1c1ccc(N2C(=O)CC(NCC3CCCO3)C2=O)cc1` (stereo not drawn) [CBK263962] to `O=C1CC(N2CCN(CCc3ccncc3)CC2)C(=O)N1c1ccc(Cl)cc1` (stereo not drawn) [CBK270078], the “% of control remaining” value rises from 100% to 177.109%.

Going from `CCCNCC(=O)N1CN(C(=O)c2ccc(C)cc2)C(C)(C)C1` [CBK089572C] to `CCCC1=NN(c2ccc([N+](=O)[O-])cc2)C(=O)/C1=C/NC1CC(C)(C)NC(C)(C)C1` [CBK262896], the “% of control remaining” value rises from 111.375% to 121.221%.

Compared with `Cn1c(CCC(=O)NCC(C)(C)N2CCCCC2)nc2ccccc21` [CBK281877], `Cn1ncc2c1CCCN(C(=O)COc1cccc(F)c1)C2` [CBK285257] is higher in “% of control remaining” value: 105.374% for the first, 132.483% for the second.

Compared with `Cc1cc2ncn(CC(=O)N3CCC(F)CC3)c2cc1C` [CBK200266], `Cc1ccc([N+](=O)[O-])cc1NC(=O)CCn1cnc2ccccc2c1=O` [CBK267644] is higher in “% of control remaining” value: 90.0868% for the first, 129.519% for the second.

First: c1ccc(CNc2c(-c3ccco3)nc3cnccn23)cc1 [CBK283933]
Second: O=C(Cn1nc(-c2ccco2)ccc1=O)Nc1ccccn1 [CBK287985]
The “% of control remaining” value of the first is lower: 133.921% for the first, 147.643% for the second.

Going from `CC(=O)NCCNS(=O)(=O)c1ccc(C(C)C)cc1` [CBK043726] to `CC(=O)Nc1ccc(S(=O)(=O)NCCC#N)cc1Cl` [CBK044272], the “% of control remaining” value falls from 180.319% to 114.291%.

Compared with `O=C(c1ccccc1F)N1CCCC1Cn1c(=O)oc2ccccc21` (stereo not drawn) [CBK282926], `CC(C)NC(=O)Cn1c(-c2ccc(F)cc2)cc2cccnc21` [CBK284862] is higher in “% of control remaining” value: 105.712% for the first, 115.798% for the second.

Compared with `COc1cccc(/C=C2/NC(=O)N(c3cccc(Cl)c3)C2=O)c1OCc1cccc(C(=O)O)c1` [CBK265626], `Cc1ccc(NC(=O)CN2C(=O)N/C(=C\c3cc(Br)cc(Cl)c3O)C2=O)cc1` [CBK265018] is lower in “% of control remaining” value: 110.935% for the first, 100% for the second.

Going from `Cc1sc(NC(=O)c2ccc3c(c2)OCCO3)c(C(=O)NCc2cccnc2)c1C` [CBK268181] to `COC(=O)c1ccc(N2CCOCC2)c(NC(=O)c2cccnc2)c1` [CBK270257], the “% of control remaining” value falls from 129.423% to 129.259%.

First: CC(C)(C)c1ccc(C(=O)CC(C(=O)O)N2CCN(c3cccc(Cl)c3)CC2)cc1 (stereo not drawn) [CBK077385]
Second: O=[N+]([O-])c1ccc(CN2CCN(Cc3cccnc3)CC2)cc1 [CBK263161]
The “% of control remaining” value of the first is higher: 111.9% for the first, 110.624% for the second.

First: COC(=O)[C@@H](C)NC(=O)[C@H]1CN(C(=O)Nc2ccccc2)CCN1C(=O)NC(C)C [CBK289631]
Second: O=C1NCCCc2nc(Nc3ccccc3)sc21 [CBK087091]
The “% of control remaining” value of the first is higher: 113.166% for the first, 108.019% for the second.

Going from `Cc1cc(C[C@@H]2CCC[C@H]2NCc2cccnc2)on1` [CBK284933] to `CC1(C(=O)NC(c2ccncc2)c2ccc(Cl)cc2)CCCO1` (stereo not drawn) [CBK282710], the “% of control remaining” value rises from 97.0745% to 151.936%.

Compared with `COc1cc(Nc2nc(-c3cccc4ccccc34)cn3ccnc23)cc(OC)c1OC` [CBK036608], `COc1ccc(OC)c(NC(=O)c2c[nH]c(=O)n(-c3ccc(F)cc3)c2=O)c1` [CBK287552] is higher in “% of control remaining” value: 81.9785% for the first, 135.091% for the second.

Going from `O=C(NCc1nnc(-c2cccs2)o1)c1cccc(-c2ccc(F)cc2)c1` [CBK286296] to `CN1CCN(C(=O)c2ccc(-c3cnc4[nH]c(=O)n(CCN5CCOCC5)c4n3)cc2)CC1` [CBK064800], the “% of control remaining” value falls from 123.808% to 122.105%.

Going from `Nc1ccc(Sc2nccnc2N2CCCC2)cc1` [CBK089520] to `O=C(CCN1C(=O)C2C3CCC(C3)C2C1=O)OCC(=O)c1ccc(Cl)c([N+](=O)[O-])c1` (stereo not drawn) [CBK264124], the “% of control remaining” value falls from 111.464% to 100%.

Compared with `CSc1nc(N)nc2sc3c(O)cc(=O)[nH]c3c12` [CBK267457], `O=C(O)CCC(=O)NCCCc1ccccc1` [CBK265465] is lower in “% of control remaining” value: 138.718% for the first, 124.468% for the second.
